Assay results reported in patent US20240190939A1.
No constants are given. Whether binding was seen depends on the method and setting. Some results given as binding are weak or reduced against the parent protein; the word gives no strength. Sequences can lack the tags named with a protein.

Sequences of proteins named here, by UniProt entry; tags and fusion partners are left off. A change or cut given only in a name is not applied to a line headed by its entry.
UniProt Q92692: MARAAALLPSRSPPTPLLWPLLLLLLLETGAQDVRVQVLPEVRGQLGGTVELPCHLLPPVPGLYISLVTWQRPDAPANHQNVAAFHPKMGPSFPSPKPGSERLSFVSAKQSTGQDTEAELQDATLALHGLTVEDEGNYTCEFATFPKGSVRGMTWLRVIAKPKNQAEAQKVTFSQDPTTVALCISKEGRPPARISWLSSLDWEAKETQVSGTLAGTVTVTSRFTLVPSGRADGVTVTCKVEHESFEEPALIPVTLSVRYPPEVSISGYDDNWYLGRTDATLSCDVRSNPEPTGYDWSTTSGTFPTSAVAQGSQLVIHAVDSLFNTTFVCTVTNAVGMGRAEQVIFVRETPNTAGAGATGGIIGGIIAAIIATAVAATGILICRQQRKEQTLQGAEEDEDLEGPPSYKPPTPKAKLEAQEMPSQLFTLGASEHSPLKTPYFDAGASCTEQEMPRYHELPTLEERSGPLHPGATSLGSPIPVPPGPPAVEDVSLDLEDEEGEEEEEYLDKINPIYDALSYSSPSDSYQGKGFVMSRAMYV
UniProt Q9NQS3: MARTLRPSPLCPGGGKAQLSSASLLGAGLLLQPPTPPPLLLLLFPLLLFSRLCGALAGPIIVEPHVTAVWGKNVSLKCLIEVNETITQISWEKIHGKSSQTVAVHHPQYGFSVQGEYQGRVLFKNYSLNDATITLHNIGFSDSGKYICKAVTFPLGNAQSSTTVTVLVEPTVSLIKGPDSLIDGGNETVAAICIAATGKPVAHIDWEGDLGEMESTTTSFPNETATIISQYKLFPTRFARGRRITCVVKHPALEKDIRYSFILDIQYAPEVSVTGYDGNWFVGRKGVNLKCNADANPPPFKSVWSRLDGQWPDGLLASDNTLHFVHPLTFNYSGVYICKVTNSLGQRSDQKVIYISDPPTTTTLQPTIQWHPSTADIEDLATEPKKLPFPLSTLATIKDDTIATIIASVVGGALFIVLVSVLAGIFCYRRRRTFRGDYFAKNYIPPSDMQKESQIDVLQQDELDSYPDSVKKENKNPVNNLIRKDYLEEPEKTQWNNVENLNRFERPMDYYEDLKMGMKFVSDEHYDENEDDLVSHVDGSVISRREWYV

Columns and labels:
[1] = biological target: recombinant CD112 protein (Homo sapiens (Human)) (UniProt Q92692); assay: Dual ELISA: OX40-Fc capture, CD112-His detection, 6x His HRP
[2] = biological target: recombinant CD113 protein (Homo sapiens (Human)) (UniProt Q9NQS3); assay: Dual ELISA: OX40-Fc capture, CD113 detection, 6x His HRP
[3] = biological target: recombinant CD112 protein (Homo sapiens (Human)) (UniProt Q92692); assay: dual ELISA, OX40-Fc captured, detected with recombinant CD112
[4] = biological target: recombinant CD113 protein (Homo sapiens (Human)) (UniProt Q9NQS3); assay: dual ELISA, OX40-Fc captured, detected with recombinant CD113

binding [1]: binds | binding [2]: binds | binding [3]: binds | binding [4]: binds
B1: human TIGIT-Fc-OX40L chimeric protein (Fc fusion)
chain: MMTGTIETTGNISAEKGGSIILQCHLSSTTAQVTQVNWEQQDQLLAICNADLGWHISPSFKDRVAPGPGLGLTLQSLTVNDTGEYFCIYHTYPDGTYTGRIFLEVLESSVAEHGARFQIPSKYGPPCPPCPAPEFLGGPSVFLFPPKPKDQLMISRTPEVTCVVVDVSQEDPEVQFNWYVDGVEVHNAKTKPREEQFNSTYRVVSVLTVLHQDWLSGKEYKCKVSSKGLPSSIEKTISNATGQPREPQVYTLPPSQEEMTKNQVSLTCLVKGFYPSDIAVEWESNGQPENNYKTTPPVLDSDGSFFLYSRLTVDKSRWQEGNVFSCSVLHEALHNHYTQKSLSLSLGKIEGRMDQVSHRYPRIQSIKVQFTEYKKEKGFILTSQKEDEIMKVQNNSVIINCDGFYLISLKGYFSQEVNISLHYQKDEEPLFQLKKVRSVNSLMVASLTYKDKVYLNVTTDNTSLDDFHVNGGELILIHQNPGEFCVL
